Reference: PMC11098812

Chains of the proteins cited; added tags and fusions are not shown. Lines headed by an entry give the natural chain unless they say otherwise; changes in a name come on top.
UniProt Q9BYX4: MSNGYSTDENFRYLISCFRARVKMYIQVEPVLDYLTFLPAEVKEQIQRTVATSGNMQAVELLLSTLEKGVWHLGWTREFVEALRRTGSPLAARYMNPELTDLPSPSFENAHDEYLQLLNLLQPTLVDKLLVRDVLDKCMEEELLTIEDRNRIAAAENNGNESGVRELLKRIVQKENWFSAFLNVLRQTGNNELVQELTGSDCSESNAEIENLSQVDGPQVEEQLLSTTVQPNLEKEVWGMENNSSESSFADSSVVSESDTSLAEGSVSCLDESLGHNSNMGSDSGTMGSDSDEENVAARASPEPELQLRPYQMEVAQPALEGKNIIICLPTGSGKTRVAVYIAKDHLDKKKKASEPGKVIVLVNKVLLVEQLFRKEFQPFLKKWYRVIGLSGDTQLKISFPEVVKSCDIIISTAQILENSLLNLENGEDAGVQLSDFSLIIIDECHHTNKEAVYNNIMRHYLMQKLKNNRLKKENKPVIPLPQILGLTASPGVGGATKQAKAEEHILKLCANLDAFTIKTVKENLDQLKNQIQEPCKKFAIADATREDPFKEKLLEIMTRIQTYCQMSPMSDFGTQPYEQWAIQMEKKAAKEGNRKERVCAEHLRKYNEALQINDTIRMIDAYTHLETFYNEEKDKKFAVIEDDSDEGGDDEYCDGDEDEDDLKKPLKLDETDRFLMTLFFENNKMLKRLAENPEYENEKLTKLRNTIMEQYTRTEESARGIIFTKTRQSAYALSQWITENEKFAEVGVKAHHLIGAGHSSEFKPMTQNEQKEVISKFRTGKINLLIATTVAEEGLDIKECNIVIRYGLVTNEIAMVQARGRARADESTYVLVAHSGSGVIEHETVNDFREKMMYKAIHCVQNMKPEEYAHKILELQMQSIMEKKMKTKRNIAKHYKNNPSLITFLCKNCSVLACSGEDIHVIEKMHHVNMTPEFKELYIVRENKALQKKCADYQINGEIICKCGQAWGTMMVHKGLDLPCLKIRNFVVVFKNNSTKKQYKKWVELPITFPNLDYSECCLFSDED
UniProt Q61072: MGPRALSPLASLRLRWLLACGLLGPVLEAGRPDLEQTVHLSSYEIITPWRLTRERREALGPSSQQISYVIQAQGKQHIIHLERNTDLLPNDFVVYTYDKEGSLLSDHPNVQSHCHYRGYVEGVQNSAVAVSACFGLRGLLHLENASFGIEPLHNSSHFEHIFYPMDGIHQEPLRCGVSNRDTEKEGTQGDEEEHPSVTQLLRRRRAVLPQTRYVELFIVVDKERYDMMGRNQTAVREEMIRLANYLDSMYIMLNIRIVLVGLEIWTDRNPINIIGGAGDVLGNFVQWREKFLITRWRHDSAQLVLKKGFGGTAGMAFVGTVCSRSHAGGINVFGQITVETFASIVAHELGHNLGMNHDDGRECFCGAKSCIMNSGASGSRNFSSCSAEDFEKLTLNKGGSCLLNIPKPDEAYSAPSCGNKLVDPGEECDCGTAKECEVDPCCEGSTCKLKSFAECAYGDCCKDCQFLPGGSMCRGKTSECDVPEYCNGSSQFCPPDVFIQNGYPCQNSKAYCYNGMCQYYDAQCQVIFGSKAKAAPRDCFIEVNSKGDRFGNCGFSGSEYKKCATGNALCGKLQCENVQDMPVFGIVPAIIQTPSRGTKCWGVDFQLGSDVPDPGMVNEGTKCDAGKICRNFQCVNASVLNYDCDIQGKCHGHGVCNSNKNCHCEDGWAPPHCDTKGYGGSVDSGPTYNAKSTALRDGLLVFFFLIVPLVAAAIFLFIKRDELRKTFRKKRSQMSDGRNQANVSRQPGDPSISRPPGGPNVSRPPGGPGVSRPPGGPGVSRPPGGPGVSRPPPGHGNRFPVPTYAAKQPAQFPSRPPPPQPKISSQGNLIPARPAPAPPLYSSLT
UniProt Q61824: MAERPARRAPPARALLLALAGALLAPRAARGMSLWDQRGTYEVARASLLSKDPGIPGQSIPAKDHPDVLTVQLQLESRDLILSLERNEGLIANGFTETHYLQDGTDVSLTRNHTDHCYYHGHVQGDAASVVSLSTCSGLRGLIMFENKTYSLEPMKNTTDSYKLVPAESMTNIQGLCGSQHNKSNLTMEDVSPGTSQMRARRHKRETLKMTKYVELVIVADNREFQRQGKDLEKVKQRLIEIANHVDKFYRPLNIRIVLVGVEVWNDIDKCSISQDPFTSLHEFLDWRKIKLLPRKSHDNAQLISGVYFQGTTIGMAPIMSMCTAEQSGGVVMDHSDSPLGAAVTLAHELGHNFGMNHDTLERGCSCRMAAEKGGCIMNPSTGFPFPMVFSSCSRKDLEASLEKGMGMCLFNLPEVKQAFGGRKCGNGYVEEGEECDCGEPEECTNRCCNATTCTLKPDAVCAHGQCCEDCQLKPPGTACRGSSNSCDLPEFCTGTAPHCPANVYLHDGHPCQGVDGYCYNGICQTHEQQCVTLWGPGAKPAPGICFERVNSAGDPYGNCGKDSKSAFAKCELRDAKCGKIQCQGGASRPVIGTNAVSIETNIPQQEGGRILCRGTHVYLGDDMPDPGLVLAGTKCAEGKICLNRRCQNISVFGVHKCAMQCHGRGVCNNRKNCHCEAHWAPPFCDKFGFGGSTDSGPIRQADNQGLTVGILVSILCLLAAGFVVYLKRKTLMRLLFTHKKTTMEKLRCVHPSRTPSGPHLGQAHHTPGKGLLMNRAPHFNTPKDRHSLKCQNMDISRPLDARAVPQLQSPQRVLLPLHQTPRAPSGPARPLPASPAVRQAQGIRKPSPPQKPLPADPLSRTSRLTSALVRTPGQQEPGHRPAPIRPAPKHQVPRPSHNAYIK
UniProt Q9Z0F8: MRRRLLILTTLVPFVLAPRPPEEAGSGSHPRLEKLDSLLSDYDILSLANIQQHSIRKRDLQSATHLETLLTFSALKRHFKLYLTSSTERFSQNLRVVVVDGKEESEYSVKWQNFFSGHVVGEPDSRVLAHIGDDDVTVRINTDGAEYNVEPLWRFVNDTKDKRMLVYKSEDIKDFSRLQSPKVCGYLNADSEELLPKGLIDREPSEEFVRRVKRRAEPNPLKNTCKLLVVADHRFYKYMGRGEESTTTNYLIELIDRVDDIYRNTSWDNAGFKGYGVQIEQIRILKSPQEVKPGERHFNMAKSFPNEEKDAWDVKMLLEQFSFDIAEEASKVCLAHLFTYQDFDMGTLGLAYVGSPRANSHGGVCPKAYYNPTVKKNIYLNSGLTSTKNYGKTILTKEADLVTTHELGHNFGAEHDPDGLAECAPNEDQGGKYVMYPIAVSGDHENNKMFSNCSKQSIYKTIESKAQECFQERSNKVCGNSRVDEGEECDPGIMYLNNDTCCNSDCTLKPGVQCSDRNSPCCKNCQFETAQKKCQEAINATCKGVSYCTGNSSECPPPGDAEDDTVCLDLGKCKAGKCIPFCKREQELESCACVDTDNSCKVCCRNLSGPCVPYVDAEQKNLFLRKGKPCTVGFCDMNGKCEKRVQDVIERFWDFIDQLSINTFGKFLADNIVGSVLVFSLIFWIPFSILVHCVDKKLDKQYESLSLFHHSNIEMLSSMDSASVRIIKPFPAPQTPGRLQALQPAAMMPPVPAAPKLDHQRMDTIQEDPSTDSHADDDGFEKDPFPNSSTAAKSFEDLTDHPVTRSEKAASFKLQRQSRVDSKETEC

Legend:
[1] = biological target: FLAG-tagged human MDA5 (human) (UniProt Q9BYX4); experiment: co-IP; FLAG pull-down with anti-FLAG M2 magnetic beads (4 °C, 4-16 h) from lysates of HEK293T cells co-expressing the two proteins for 24 h; immunoblot
[2] = biological target: T1, FLAG-tagged murine MDA5 (mouse) (UniProt Q8R5F7); experiment: as above
T1 sequence: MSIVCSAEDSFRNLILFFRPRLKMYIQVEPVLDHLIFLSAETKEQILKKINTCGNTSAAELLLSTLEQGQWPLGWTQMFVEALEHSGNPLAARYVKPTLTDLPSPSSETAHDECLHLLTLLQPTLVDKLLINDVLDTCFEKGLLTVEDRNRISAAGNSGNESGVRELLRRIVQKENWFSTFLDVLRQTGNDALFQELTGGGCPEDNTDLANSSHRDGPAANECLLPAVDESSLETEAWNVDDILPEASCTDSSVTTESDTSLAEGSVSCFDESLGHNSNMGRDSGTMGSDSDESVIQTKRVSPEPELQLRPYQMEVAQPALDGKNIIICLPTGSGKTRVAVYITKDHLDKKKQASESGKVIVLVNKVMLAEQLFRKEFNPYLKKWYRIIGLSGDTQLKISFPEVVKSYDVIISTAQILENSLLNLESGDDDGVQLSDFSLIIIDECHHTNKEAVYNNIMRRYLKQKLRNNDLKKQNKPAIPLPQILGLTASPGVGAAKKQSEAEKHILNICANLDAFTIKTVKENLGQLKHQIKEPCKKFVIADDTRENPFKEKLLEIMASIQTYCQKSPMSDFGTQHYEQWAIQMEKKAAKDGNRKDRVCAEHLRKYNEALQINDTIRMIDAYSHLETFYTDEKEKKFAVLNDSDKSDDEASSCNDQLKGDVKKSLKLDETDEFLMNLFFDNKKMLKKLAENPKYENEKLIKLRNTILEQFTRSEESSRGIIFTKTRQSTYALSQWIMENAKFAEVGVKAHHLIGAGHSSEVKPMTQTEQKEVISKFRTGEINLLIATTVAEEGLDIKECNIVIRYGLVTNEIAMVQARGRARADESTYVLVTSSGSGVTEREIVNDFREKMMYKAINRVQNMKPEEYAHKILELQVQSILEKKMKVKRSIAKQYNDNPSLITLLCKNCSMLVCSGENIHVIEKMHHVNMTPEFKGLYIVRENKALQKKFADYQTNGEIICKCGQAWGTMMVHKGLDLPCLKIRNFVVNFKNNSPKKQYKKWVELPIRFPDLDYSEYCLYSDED

[3] = biological target: T2, endogenous MDA5 (mouse lung fibroblasts) (mouse (endogenous in lung fibroblasts)) (UniProt Q8R5F7); experiment: co-IP; endogenous proteins in LFs mock-treated or transfected with EMCV RNA (400 ng/ml) for 16 h; IP with anti-MDA5 (or IgG isotype control), protein G magnetic beads, immunoblot
T2 sequence: T1 sequence

“murine ADAM9 catalytically inactive mutant (E→A) (from UniProt Q61072)” was tested, and the binding [1] was “binds” and the binding [2] was “binds”.
For “endogenous ADAM12 (mouse lung fibroblasts) (from UniProt Q61824)”, the binding [3] was “no binding”.
With “endogenous ADAM17 (mouse lung fibroblasts) (from UniProt Q9Z0F8)” the binding [3] was “no binding”.

Results are given in words; binding and its absence hold for the method and conditions named. Binding seen in cells or lysates may run through a third protein. For some of these results: Binding can be weak; no strength is given. For some of these results: Where a sequence is shown, tags or fusion partners need not be part of it.
